Test results reported in doi:10.1101/2020.05.13.093252.
Results are given in words; binding and its absence hold for the method and conditions named. In cells and extracts the contact can be indirect. Some entries that bind do so weakly or less than the wild type.

Protein sequences, listed by entry. Tags and fused reporters are not part of them. Residues count along the entry.
UniProt P21803, residues 22-821: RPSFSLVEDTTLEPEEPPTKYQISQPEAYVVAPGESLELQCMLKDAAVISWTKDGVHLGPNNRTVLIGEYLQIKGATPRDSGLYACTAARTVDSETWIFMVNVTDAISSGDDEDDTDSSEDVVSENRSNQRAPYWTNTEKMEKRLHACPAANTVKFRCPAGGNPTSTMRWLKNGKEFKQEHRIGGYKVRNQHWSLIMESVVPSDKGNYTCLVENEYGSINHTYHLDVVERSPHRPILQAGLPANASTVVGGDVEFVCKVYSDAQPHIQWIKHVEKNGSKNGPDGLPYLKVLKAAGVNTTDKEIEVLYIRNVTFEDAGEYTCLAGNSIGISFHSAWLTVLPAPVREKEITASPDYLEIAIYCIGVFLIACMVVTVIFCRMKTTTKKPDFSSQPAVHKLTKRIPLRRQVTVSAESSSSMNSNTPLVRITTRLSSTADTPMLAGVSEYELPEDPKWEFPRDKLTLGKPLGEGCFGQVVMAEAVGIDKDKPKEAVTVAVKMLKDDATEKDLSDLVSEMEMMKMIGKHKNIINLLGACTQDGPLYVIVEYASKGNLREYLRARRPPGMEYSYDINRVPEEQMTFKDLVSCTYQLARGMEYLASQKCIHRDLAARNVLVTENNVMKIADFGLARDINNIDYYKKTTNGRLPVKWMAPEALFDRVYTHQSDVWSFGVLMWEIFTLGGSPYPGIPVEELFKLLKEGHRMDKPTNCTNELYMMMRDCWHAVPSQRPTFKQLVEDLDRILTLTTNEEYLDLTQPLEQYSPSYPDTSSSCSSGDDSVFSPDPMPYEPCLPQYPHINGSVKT
UniProt P47941: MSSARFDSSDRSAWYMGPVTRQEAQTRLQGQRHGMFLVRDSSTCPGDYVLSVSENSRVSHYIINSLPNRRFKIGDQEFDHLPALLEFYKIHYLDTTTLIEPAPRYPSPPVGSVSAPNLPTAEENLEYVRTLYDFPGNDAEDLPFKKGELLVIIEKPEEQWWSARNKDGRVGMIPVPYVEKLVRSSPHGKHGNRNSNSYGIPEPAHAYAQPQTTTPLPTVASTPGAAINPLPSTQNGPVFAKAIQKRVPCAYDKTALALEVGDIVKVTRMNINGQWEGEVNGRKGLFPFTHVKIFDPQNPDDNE

Molecular target: FGFR2^WT-Flag3x (mouse FGFR2 isoform c, wild type, triple Flag tag) (mouse) (UniProt P21803)
Assay: co-IP

binding: binds
Substance: CRKL (from UniProt P47941 1-303)
